Measurements reported in PubChem BioAssay AID720505 (Drosophila RNAi Screening Center, 2013)
The deposit covers about 20,000 reagents; this is an unselected part of those with a known target gene and a result. Of all reagents, about 2,100 (10%) were called active. 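Raw plate signals without normalisation; calls rest on control-based scores that were not deposited; replicate 2 separates called from uncalled poorly.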 A number with no mark means an inactive call. Reagents against one gene are numbered here. Names joined by + are all predicted targets of the reagent. Not stated in the record: the amount of reagent, the time to read-out.

Assay: 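Fly regulators or components of the CRAC channel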 (primary screen)
Cell system: Drosophila S2R+ cells
Reagent: long dsRNA against Drosophila genes
Treatment: thapsigargin (2 µM) in calcium-free buffer to empty internal stores, then 2 mM calcium added back
Measurement: 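Fluo-4 signal in 384-well plates read on a FLIPR after thapsigargin (2 µM, calcium-free) store depletion and 2 mM calcium add-back; unnormalised mean endpoint per well; screen run twice, selected wells retested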
Scale: calcium signal and retest calcium signal: higher = more calcium entry after store depletion
Rule for the call: 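About 1500 genes called as lowering calcium entry, by varying amounts, judged against per-plate control wells with STIM1 as positive and Rho1 as negative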
Calls: active = called as lowering calcium entry; inactive = not called

no.	target	reagent no.	calcium signal, replicate 1	calcium signal, replicate 2	retest calcium signal, replicate 1	retest calcium signal, replicate 2
1	Drgx (Dorsal root ganglia homeobox)	1	182	122		
2	Drgx (Dorsal root ganglia homeobox)	2	124	81.7		
3	Diap1 (Death-associated inhibitor of apoptosis 1)	1	25.4 (active)	33.3		
4	CG42686 (retired record)	1	91.8 (active)	75.4		
5	CG42686 (retired record)	2	156	100		
6	CG42686 (retired record)	3	97.6	144		
7	Ste:CG33238 + Ste:CG33241 + Ste:CG33236 + 11 more	1	120	102		
8	Ste:CG33238 + Ste:CG33241 + Ste:CG33236 + 11 more	2	218	84		
9	CG30278	1	120	161		
10	Fancm (Fanconi anemia group M helicase)	1	110	157		
11	Phyhd1 (Phytanoyl-CoA dioxygenase domain containing 1)	1	165	89.3		
12	GstZ1 (Glutathione S transferase Z1)	1	101	125		
13	Cpr23B (Cuticular protein 23B)	1	158	135		
14	Flad2 (Flavin adenine dinucleotide synthetase 2)	1	95.5	155		
15	aspr (asperous)	1	191	97		
16	aspr (asperous)	2	196	105		
17	Dek	1	113	90.3		
18	lectin-33A	1	170	127		
19	lectin-33A	2	129	128		
20	Mtp (Microsomal triacylglycerol transfer protein)	1	135	78.9		
21	CG30082	1	70.2	124		
22	Spn85F (Serpin 85F)	1	108	145		
23	CG11168	1	140	213		
24	CG5381	1	212	147		
25	CG13010	1	72.4 (active)	99.4		
26	CG31633	1	150	134		
27	CG3517	1	156	112		
28	amx (almondex)	1	112	89.7		
29	lectin-21Cb	1	90.8	130		
30	Cpr100A (Cuticular protein 100A)	1	179	182		
31	CG4822	1	72.7	121		
32	mud (mushroom body defect)	1	91.2	180	6479	136
33	CG30122	1	43 (active)	98.3		
34	CG30122	2	201	172		
35	hpRNA:CR18854 + IP3K1	1	91.2	130		
36	CG4853	1	113	138		
37	CG13538	1	174	240		
38	Vha16-5 (Vacuolar H[+] ATPase 16kD subunit 5)	1	77.1 (active)	120		
39	Cp190 (Centrosomal protein 190kD)	1	94.3	157		
40	CG33308	1	159	114		
41	CG3927	1	66.1 (active)	115		
42	CG3927	2	68.5	83.5		
43	GstE2 (Glutathione S transferase E2)	1	126	91.8		
44	CG10177	1	292	126		
45	CG6709 + Hez	1	106	82.2		
46	CG6709 + Hez	2	129	106		
47	CG32755	1	205	93.7		
48	CG42553	1	101	68.4		
49	pyd3	1	94.1	115	99.4	98.6
50	pyd3	2	140	129		
51	nAChRalpha2 (nicotinic Acetylcholine Receptor alpha2)	1	194	202		
52	CG8870	1	144	213		
53	CG16734	1	92.8	211		
54	eIF3f2 (eukaryotic translation initiation factor 3 subunit f2)	1	110	175		
55	CG13138	1	189	149		
56	Tl (Toll)	1	95.9	154		
57	CG4377	1	107	82.6		
58	Tep4 (Thioester-containing protein 4)	1	60.3	195		
59	Remo (Remoulade)	1	87.2	107		
60	CG13658	1	217	159		
61	Rpe (Ribulose-5-phosphate-3-epimerase)	1	134	108		
62	CG32762	1	154	95.2	6202	137
63	pirk (poor Imd response upon knock-in)	1	200	96.8		
64	CG30357	1	143	222		
65	ORMDL (Orosomucoid 1-like)	1	94.1	199		
66	CG13615	1	192	141		
67	CG3448	1	87.9	93		
68	Polr1E (RNA polymerase I subunit E)	1	159	162		
69	Polr1E (RNA polymerase I subunit E)	2	222	295		
70	CG5214	1	115	118	6551	126
71	CG5214	2	101	100		
72	rho-7 (rhomboid-7)	1	106	123		
73	Blos3	1	97.2	94.4		
74	CG2656	1	122	128		
75	CG13048	1	102	138		
76	Lip4 (Lipase 4)	1	181	206		
77	Ssrp (Structure specific recognition protein)	1	68.8 (active)	84		
78	bocks (bocksbeutel)	1	91.1	142		
79	CG42720 (retired record)	1	78.5	141		
80	CG11458	1	109	184		
81	CG14424	1	108	139		
82	CG33136	1	127	95.3		
83	Cdc50 (Cell division cycle 50)	1	94.4	115		
84	amrt (amaretto)	1	82.5	83.7		
85	CG15034	1	274	101		
86	upSET	1	61.9 (active)	99.5		
87	upSET	2	134	114		
88	CG42855	1	131	128		
89	CG12493	1	103	83.4		
90	Atf6	1	98.7	128	91.2	76.5
91	Atf6	2	104 (active)	113		
92	CG9372	1	115	113		
93	CG34242	1	67.7	96.8		
94	CG31743 + CG34313	1	53.5 (active)	103		
95	CG31743 + CG34313	2	126	126		
96	His2B:CG33894 + His2B:CG33872 + His2B:CG33902 + 20 more	1	34.8 (active)	53.4		
97	Tmhs (Tetraspan membrane protein in hair cell stereocilia)	1	154	141		
98	IleRS (Isoleucyl-tRNA synthetase)	1	61.4 (active)	98.2		
99	Pp2A-29B (Protein phosphatase 2A at 29B)	1	138	180		
100	put (punt)	1	106	123		
101	rump (rumpelstiltskin)	1	97.2	158		
102	Cyp4aa1 (Cytochrome P450 4aa1)	1	101	94		
103	CG40298	1	110	113		
104	kat-60L1 (katanin p60-like 1)	1	148	113		
105	EMC2B + EMC2A	1	166	200		
106	AnxB11 (Annexin B11)	1	121	139		
